Data as given in PubChem BioAssay AID686937 (Drosophila RNAi Screening Center, 2013)
In all, the deposit lists about 23,000 reagents; shown is a random part of those that have a named target and a result. 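Reduced-secretion tags in replicate 1 do not always agree with the z-scores; no criterion for assigning the tags was given.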 Reagent sequences are not shown. Not given: the amount of reagent.

Test: 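Genes in the fly needed for secretion of protein constitutively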 (primary screen)
System: Drosophila S2 cells expressing secreted horseradish peroxidase
Reagent: long dsRNA against Drosophila genes
Duration: about 5.5 days (5 days dsRNA, then 12 h reporter induction)
Treatment: reporter expression induced after 5 days of dsRNA, read 12 h later; inducer not stated
Measurement: 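Chemiluminescent measurement of peroxidase in the medium 12 h after reporter induction, following 5 days of dsRNA, given as a z-score per plate; higher means more secretion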
Scale: z-score: higher = more reporter secreted into medium

gene knocked down,amplicon,"z-score, replicate 1","z-score, replicate 2","z-score, replicate 3","z-score, replicate 4","phenotype, replicate 1"
dsd (GeneID 43315),DRSC13829,0.22,-0.89,,,
dsd (GeneID 43315),DRSC15850,-0.02,0.21,,,
CG9444 (GeneID 41175),DRSC16493,0.33,0.13,,,
Aplip1 (GeneID 53472),DRSC07947,1,0.55,,,
Aplip1 (GeneID 53472),DRSC08697,0.51,0.51,,,
Aplip1 (GeneID 53472),DRSC21587,-0.12,0.11,,,
CG9346 (GeneID 37381),DRSC04542,0.1,0.43,,,
mRpL36 (GeneID 59151),DRSC10337,-0.14,-0.11,,,
CG31016 (GeneID 326113),DRSC21359,-1.08,-0.44,,,reduced secretion
CG34263 (GeneID 5740488),DRSC07866,0.28,0.2,,,
sog (GeneID 32498),DRSC20379,-0.28,-0.51,,,
Gdap1 (GeneID 38597),DRSC10437,0.19,0.37,,,
Npl4 (GeneID 43091),DRSC15615,0.03,-0.11,,,
Npl4 (GeneID 43091),DRSC15616,-0.2,-0.29,,,
srp (GeneID 41944),DRSC13125,0,0,,,
srp (GeneID 41944),DRSC17068,-2.23,-2.13,,,reduced secretion
CG32686 (GeneID 318153),DRSC17645,-0.53,0.23,,,
Nxf3 (GeneID 317878),DRSC21749,-0.13,-0.66,,,
CG17684 (GeneID 3355066),DRSC07724,0.11,-0.34,,,
CG17684 (GeneID 3355066),DRSC21166,0.53,0.23,,,
CheA86a (GeneID 3772145),DRSC12839,-0.46,0.02,,,
Graf (GeneID 32522),DRSC20131,0.25,0.12,,,
snf (GeneID 31442),DRSC18835,-2.32,-0.22,,,reduced secretion
CG18682 (retired record) (GeneID 50098),DRSC15373,-1.67,-0.13,,,reduced secretion
CG18682 (retired record) (GeneID 50098),DRSC15374,0.35,-0.25,-0.57,0.19,
St2 (GeneID 41098),DRSC15142,-0.58,0.39,,,
St2 (GeneID 41098),DRSC22624,-0.62,6.6,,,
CG7656 (GeneID 39691),DRSC10900,0.37,0.49,,,
Sec61beta (GeneID 46080),DRSC07548,0.37,0.17,-1.85,-1.08,reduced secretion
Sec61beta (GeneID 46080),DRSC21512,-2.9,-2.54,,,reduced secretion
Atox1 (GeneID 326216),DRSC22416,0.35,0.21,,,
CG9525 (GeneID 34217),DRSC03249,0.55,0.14,,,
HPS1 (GeneID 36656),DRSC06195,0.15,0.35,,,
Dso1 (GeneID 50126),DRSC21815,0.64,-1.12,,,
mthl12 (GeneID 261599),DRSC12964,0.74,0.53,,,
ppk7 (GeneID 33886),DRSC03236,0.36,0.16,,,
CG33234 (GeneID 2769006),DRSC07994,0.13,0.29,,,
CG13051 (GeneID 5740583),DRSC09932,0.16,0.16,,,
CG9098 (GeneID 33840),DRSC03136,0.43,0.39,0.43,0.36,
CG9098 (GeneID 33840),DRSC22501,-0.08,-5.93,,,reduced secretion
Buffy (GeneID 36251),DRSC05957,0.37,0.43,,,
RpS14a (GeneID 47218),DRSC18710,-1.71,-2.82,,,reduced secretion
CG10646 (GeneID 39426),DRSC09764,0.62,0.59,,,
Npc2c (GeneID 41233),DRSC15523,0.33,-0.56,,,
ScsbetaA (GeneID 41067),DRSC14446,0.22,0.31,,,
amd (GeneID 35188),DRSC02608,0.47,0.48,-0.4,-0.1,
amd (GeneID 35188),DRSC03483,0.2,0.21,,,
Cul4 (GeneID 35780),DRSC07243,-0.71,-0.51,,,
f (GeneID 32718),DRSC19174,0.58,0.54,,,
f (GeneID 32718),DRSC19516,-0.2,-0.73,,,
f (GeneID 32718),DRSC20331,-0.08,-0.61,,,
atl (GeneID 42934),DRSC16089,0.15,0.24,,,
ttm3 (GeneID 35437),DRSC03736,1.37,0.17,,,
CG17508 (GeneID 49893),DRSC07771,0.13,0.24,,,
Mst33A (GeneID 34578),DRSC03371,0.13,0.12,,,
inaE (GeneID 32343),DRSC19376,0.57,0.63,,,
inaE (GeneID 32343),DRSC19377,0.2,0.55,,,
inaE (GeneID 32343),DRSC19379,0.53,0.53,-0.39,-0.61,
inaE (GeneID 32343),DRSC19726,0.45,0.18,,,
rad (retired record) (GeneID 32251),DRSC18966,-0.09,0.19,,,
rad (retired record) (GeneID 32251),DRSC19687,0.37,0.36,0.46,0.46,
rad (retired record) (GeneID 32251),DRSC19816,0.07,-0.01,,,
rad (retired record) (GeneID 32251),DRSC22865,1.28,2.39,,,
CG5539 (GeneID 37766),DRSC04510,0.49,0.42,,,
Nep4 (GeneID 42449),DRSC15539,0.3,0.29,,,
CG33177 (GeneID 32438),DRSC19949,0.27,0.43,,,
CG15199 (GeneID 32051),DRSC19646,0.28,0.3,,,
CG32643 (GeneID 318138),DRSC18962,0.33,0.12,,,
Kua (GeneID 35300),DRSC02100,0.29,0.19,,,
CG11857 (GeneID 43042),DRSC14411,-0.48,-0.13,,,
CG7550 (GeneID 38901),DRSC10875,0.49,0.34,,,
qkr58E-1 (GeneID 37561),DRSC04709,-0.08,-0.06,,,
CG8141 (GeneID 41622),DRSC16387,-0.06,0.67,,,
CG14965 (GeneID 38388),DRSC08424,0.33,0.46,,,
Sf3b2 (GeneID 33514),DRSC00619,-4.41,-2.82,,,reduced secretion
Rab7 (GeneID 42841),DRSC16810,0.04,-0.18,,,
Cth (GeneID 37143),DRSC07422,-0.1,-0.03,,,
Tsp33B (GeneID 34590),DRSC02418,0.36,0.3,,,
Ir48a (GeneID 3772197),DRSC05301,0.52,0.22,,,
CG15641 (GeneID 32477),DRSC19677,0.37,0.38,,,
U2A (GeneID 35713),DRSC06445,-1.49,-0.93,,,
shep (GeneID 38605),DRSC08748,-4.75,-3.01,,,reduced secretion
shep (GeneID 38605),DRSC09765,0.78,0.49,,,
shep (GeneID 38605),DRSC09771,-0.41,-0.05,,,

12 entries from above, ordered by “z-score, replicate 2”, high to low.
gene knocked down,amplicon,"z-score, replicate 1","z-score, replicate 2","z-score, replicate 3","z-score, replicate 4","phenotype, replicate 1"
CG10646 (GeneID 39426),DRSC09764,0.62,0.59,,,
f (GeneID 32718),DRSC19174,0.58,0.54,,,
amd (GeneID 35188),DRSC02608,0.47,0.48,-0.4,-0.1,
Buffy (GeneID 36251),DRSC05957,0.37,0.43,,,
CG9098 (GeneID 33840),DRSC03136,0.43,0.39,0.43,0.36,
ScsbetaA (GeneID 41067),DRSC14446,0.22,0.31,,,
amd (GeneID 35188),DRSC03483,0.2,0.21,,,
CG13051 (GeneID 5740583),DRSC09932,0.16,0.16,,,
Cul4 (GeneID 35780),DRSC07243,-0.71,-0.51,,,
Npc2c (GeneID 41233),DRSC15523,0.33,-0.56,,,
RpS14a (GeneID 47218),DRSC18710,-1.71,-2.82,,,reduced secretion
CG9098 (GeneID 33840),DRSC22501,-0.08,-5.93,,,reduced secretion
